From the supplement of paper PMC12819154, “High-throughput peptide-centric local stability assay extends protein–ligand identification to membrane proteins, tissues and bacteria” (Nature Structural & Molecular Biology, 2025)
Some of the results follow. Small differences around the control level are noise.

Amino acid sequences for entries named in this document (tags omitted). A change or cut given only in a name is not applied to a line headed by its entry.
UniProt Q8TAT6: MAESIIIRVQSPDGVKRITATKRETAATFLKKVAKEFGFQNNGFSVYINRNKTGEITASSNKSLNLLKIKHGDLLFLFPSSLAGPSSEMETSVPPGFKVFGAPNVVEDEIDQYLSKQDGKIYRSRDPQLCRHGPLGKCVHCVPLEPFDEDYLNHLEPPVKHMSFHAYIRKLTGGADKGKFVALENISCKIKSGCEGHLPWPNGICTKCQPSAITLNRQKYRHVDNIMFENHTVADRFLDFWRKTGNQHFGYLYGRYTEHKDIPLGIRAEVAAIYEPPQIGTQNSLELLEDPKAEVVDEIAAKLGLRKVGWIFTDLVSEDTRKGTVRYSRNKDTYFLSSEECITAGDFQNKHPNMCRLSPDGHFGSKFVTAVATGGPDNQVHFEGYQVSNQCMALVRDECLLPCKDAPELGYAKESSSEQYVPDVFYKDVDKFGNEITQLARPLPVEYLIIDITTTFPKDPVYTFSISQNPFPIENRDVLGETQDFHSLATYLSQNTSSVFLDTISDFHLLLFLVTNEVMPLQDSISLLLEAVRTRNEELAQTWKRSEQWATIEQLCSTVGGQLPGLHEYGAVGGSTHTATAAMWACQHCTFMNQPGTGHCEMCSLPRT
UniProt Q8N488: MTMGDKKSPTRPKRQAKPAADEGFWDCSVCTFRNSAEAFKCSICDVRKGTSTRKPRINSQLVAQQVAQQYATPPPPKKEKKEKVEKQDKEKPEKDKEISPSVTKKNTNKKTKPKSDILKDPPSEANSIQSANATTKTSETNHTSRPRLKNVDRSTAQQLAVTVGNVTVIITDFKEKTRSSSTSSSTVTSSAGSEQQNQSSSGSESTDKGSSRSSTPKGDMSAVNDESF
UniProt Q8NFR7: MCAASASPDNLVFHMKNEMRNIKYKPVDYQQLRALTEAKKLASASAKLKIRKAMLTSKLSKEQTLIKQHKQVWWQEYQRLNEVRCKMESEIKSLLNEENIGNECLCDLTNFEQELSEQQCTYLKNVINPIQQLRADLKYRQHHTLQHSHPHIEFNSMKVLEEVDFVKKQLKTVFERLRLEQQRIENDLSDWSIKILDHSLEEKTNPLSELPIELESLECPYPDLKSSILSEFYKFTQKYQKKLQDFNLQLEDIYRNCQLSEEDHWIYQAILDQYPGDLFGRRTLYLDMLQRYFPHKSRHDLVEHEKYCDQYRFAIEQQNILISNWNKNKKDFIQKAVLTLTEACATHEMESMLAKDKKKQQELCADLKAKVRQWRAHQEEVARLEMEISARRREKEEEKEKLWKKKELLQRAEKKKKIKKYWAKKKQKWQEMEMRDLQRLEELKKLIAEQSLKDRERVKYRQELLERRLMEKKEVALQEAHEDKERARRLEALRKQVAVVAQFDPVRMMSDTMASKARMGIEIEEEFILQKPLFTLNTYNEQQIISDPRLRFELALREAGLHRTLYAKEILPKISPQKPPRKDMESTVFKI
UniProt Q8TBF4: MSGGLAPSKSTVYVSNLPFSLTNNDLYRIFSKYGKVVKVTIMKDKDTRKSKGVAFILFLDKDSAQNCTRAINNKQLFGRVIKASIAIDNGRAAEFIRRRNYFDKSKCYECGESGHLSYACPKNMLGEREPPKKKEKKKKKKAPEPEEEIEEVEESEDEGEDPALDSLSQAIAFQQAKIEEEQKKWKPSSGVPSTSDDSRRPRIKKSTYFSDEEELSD
UniProt Q8N5W9: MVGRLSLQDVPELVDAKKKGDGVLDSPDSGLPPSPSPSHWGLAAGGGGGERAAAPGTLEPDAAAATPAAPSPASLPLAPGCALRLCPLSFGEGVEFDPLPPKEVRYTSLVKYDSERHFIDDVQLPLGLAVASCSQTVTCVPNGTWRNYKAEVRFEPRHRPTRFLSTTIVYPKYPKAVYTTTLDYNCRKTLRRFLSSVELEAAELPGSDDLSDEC
UniProt Q8N9N5: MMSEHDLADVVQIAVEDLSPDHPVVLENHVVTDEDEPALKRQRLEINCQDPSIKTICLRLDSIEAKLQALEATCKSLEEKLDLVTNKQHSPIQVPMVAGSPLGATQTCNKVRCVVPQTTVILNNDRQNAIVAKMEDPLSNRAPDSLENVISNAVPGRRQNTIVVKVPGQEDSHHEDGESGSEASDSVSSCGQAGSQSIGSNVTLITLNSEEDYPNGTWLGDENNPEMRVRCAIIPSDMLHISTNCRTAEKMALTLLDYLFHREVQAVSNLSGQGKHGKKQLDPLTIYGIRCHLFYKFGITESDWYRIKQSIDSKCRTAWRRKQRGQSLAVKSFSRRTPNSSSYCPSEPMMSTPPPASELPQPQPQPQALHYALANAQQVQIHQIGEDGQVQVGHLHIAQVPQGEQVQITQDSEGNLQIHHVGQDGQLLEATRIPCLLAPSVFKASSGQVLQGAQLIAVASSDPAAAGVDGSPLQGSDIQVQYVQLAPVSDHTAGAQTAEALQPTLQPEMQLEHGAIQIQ
UniProt Q8N8R7: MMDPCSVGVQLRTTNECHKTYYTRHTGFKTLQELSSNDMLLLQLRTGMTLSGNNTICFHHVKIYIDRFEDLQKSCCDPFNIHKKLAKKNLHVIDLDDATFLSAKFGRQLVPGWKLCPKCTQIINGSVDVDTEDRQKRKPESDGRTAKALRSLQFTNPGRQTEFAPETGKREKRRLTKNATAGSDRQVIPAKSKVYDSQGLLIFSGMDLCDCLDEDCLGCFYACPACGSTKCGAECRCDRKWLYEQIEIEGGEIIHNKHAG
UniProt Q8TAM2: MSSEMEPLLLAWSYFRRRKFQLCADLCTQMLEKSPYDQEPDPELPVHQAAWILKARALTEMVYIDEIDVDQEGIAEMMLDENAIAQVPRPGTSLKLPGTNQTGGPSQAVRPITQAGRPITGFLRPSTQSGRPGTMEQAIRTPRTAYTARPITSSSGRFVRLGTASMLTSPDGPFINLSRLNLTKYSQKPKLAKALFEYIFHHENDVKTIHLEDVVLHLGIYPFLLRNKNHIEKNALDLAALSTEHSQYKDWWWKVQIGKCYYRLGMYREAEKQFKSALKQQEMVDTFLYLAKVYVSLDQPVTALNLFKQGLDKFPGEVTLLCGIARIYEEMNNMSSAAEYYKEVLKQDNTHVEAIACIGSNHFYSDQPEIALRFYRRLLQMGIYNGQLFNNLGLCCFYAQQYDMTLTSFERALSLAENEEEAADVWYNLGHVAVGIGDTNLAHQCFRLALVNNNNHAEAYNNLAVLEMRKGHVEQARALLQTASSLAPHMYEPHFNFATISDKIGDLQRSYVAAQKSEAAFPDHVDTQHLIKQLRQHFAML
UniProt Q8N9Q2: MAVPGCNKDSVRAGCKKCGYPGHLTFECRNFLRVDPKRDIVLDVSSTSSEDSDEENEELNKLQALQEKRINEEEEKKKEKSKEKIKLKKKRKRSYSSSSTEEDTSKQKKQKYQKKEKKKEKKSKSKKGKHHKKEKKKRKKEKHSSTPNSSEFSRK
UniProt Q8NBU5: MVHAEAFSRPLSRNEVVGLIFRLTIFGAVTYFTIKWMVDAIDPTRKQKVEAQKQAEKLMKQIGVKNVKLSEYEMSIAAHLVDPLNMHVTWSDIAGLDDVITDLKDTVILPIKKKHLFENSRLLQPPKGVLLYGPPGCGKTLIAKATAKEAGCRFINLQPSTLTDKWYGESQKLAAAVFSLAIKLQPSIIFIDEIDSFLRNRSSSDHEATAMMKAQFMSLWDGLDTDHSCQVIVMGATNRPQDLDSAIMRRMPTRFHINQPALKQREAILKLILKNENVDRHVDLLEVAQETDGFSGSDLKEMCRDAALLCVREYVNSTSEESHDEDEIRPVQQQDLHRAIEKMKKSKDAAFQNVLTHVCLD
UniProt Q8NA75: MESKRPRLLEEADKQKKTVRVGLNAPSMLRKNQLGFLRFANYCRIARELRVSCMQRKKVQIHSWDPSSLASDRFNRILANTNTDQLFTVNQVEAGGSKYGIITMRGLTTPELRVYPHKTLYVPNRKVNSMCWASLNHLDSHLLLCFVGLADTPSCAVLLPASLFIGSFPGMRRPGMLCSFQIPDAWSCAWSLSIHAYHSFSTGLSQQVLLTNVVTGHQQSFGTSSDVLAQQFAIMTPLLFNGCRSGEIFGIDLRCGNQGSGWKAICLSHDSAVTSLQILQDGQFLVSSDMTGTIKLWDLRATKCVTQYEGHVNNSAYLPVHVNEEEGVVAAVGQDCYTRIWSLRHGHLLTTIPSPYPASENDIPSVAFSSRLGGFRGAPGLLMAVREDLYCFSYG
UniProt Q8NEY1: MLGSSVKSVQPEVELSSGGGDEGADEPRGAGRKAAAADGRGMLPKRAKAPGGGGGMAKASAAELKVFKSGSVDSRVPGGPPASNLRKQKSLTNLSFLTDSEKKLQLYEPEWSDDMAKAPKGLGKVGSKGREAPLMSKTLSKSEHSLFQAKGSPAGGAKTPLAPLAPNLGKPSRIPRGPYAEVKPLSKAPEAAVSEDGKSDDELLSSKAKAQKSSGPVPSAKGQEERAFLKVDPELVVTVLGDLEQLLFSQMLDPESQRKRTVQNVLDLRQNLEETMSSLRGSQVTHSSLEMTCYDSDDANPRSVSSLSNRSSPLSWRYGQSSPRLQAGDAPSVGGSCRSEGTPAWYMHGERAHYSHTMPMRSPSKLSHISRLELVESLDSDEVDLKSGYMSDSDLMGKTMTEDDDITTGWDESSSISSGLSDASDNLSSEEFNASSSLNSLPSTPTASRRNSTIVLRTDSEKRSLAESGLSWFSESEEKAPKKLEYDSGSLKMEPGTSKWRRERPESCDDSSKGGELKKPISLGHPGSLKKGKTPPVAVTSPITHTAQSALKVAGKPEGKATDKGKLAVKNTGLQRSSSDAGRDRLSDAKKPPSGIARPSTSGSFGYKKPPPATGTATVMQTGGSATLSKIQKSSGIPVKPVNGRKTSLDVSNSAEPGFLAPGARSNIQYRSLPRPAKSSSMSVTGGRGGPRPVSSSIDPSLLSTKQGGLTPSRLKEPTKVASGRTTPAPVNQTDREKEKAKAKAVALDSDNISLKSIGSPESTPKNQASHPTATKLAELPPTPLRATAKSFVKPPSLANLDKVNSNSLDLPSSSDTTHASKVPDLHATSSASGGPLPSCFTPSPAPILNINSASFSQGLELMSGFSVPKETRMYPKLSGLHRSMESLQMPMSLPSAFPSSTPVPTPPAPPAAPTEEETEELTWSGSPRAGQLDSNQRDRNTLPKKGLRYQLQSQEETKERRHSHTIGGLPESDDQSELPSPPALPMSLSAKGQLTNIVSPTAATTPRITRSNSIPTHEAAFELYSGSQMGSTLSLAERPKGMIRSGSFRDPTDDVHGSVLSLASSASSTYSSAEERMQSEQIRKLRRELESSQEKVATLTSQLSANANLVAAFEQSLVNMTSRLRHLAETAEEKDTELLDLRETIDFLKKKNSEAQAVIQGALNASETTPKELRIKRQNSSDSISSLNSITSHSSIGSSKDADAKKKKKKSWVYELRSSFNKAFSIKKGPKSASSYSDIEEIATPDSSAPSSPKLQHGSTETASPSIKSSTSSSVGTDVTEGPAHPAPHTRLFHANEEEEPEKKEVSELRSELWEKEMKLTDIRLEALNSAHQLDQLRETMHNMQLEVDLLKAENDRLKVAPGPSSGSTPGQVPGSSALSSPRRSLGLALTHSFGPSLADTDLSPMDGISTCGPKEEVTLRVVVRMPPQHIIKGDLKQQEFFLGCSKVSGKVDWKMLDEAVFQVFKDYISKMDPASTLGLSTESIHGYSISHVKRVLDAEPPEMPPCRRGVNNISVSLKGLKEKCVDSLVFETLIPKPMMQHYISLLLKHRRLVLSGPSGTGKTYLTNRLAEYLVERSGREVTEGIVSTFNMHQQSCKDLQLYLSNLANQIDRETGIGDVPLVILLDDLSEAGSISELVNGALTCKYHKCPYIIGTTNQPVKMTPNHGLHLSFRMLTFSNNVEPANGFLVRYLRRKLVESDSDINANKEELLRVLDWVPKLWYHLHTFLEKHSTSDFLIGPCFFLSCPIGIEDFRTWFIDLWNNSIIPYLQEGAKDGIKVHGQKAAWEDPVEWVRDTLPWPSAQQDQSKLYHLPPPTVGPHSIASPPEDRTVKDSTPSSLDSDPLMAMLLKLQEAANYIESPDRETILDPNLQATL
UniProt Q8N554: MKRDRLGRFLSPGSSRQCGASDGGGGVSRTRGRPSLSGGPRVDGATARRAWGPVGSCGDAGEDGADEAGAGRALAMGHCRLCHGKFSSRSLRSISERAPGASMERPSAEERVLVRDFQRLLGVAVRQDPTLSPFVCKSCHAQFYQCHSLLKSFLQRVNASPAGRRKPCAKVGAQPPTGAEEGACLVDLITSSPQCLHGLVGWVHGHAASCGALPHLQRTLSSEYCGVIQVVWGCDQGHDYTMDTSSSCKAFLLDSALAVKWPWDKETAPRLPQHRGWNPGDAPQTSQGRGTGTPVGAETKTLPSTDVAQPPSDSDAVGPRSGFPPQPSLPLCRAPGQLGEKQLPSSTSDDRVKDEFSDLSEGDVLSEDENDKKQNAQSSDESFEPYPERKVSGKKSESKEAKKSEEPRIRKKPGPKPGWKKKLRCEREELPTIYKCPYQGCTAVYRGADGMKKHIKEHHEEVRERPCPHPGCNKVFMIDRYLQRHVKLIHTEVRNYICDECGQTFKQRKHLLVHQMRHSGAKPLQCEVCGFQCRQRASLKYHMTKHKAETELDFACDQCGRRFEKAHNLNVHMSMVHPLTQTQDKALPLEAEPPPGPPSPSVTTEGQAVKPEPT

These targets were tested with CN[C@@H]1C[C@H]2O[C@@](C)([C@@H]1OC)n1c3ccccc3c3c4c(c5c6ccccc6n2c5c31)C(=O)NC4 [staurosporine] (assay: log2 fold change of tryptic peptide abundance, ligand vs vehicle (limited proteolysis) (log2 ratio); higher = more trypsin-susceptible (destabilized)). Settings: ligand concentration: 20 uM; sample: K562 cleared lysate; digestion: 4 min, 22 C (HT-PELSA RT4min, Orbitrap Astral).
“NPLOC4 (peptide sequence: GKFVALENISCK, peptide start residue: 178) (UniProt Q8TAT6)” was tested, and the log2 fold change was -0.505.
With “ARFGAP1 (peptide sequence: KSPSSDSWTCADTSTERR, peptide start residue: 342) (UniProt Q8N6T3)” the log2 fold change was -0.344.
Work on “RYBP (peptide sequence: CSICDVR, peptide start residue: 41) (UniProt Q8N488)” yielded a log2 fold change of 0.147.
Target “LZTR1 (peptide sequence: LEQEAAPVPR, peptide start residue: 485) (UniProt Q8N653)” has a log2 fold change of -0.16.
Target “CPSF7 (peptide sequence: VDVRPATR, peptide start residue: 155) (UniProt Q8N684)” has a log2 fold change of 0.276.
“UniProt Q8NFR7 (peptide sequence: LASASAK, peptide start residue: 41)” showed a log2 fold change of -0.0398.
In the case of “ZCRB1 (peptide sequence: SKCYECGESGHLSYACPK, peptide start residue: 105) (UniProt Q8TBF4)”, the log2 fold change is reported as -0.444.
“UniProt Q8NAP3 (peptide sequence: AFSDPAVSQSLK, peptide start residue: 743)” showed a log2 fold change of 0.415.
“UniProt Q8N8Z8 (peptide sequence: VHTGEKPYK, peptide start residue: 783)” was tested, and the log2 fold change was -0.351.
“RFLNB (peptide sequence: FLSTTIVYPK, peptide start residue: 163) (UniProt Q8N5W9)” gave a log2 fold change of 0.184.
Target “BANP (peptide sequence: LEINCQDPSIK, peptide start residue: 44) (UniProt Q8N9N5)” has a log2 fold change of -0.217.
Target “SCCPDH (peptide sequence: RWPISYCRELK, peptide start residue: 232) (UniProt Q8NBX0)” has a log2 fold change of 0.166.
In the case of “DTWD1 (peptide sequence: IIFIDSTWNQTNK, peptide start residue: 202) (UniProt Q8N5C7)”, the log2 fold change is reported as -0.83.
For “UniProt Q8N8R7 (peptide sequence: TGMTLSGNNTICFHHVK, peptide start residue: 46)”, the log2 fold change was -0.249.
In the case of “PAF1 (peptide sequence: TEYISTEFNR, peptide start residue: 134) (UniProt Q8N7H5)”, the log2 fold change is reported as -0.146.
Work on “USP38 (peptide sequence: MDKILEGLVSSSHPLPLKR, peptide start residue: 1) (UniProt Q8NB14)” yielded a log2 fold change of 0.2.
“UniProt Q8TAM2 (peptide sequence: SEAAFPDHVDTQHLIK, peptide start residue: 517)” gave a log2 fold change of 0.321.
Work on “SREK1IP1 (peptide sequence: AGCKKCGYPGHLTFECR, peptide start residue: 13) (UniProt Q8N9Q2)” yielded a log2 fold change of -0.109.
Target “UniProt Q8NBU5 (peptide sequence: GVLLYGPPGCGK, peptide start residue: 128)” has a log2 fold change of -0.153.
“C1orf52 (peptide sequence: APEEPPKEFK, peptide start residue: 89) (UniProt Q8N6N3)” was tested, and the log2 fold change was 0.175.
In the case of “UniProt Q8N4J0 (peptide sequence: WGSAAAVSAAAAAATR, peptide start residue: 37)”, the log2 fold change is reported as -0.0989.
“WDR48 (peptide sequence: LSASDMLQVR, peptide start residue: 585) (UniProt Q8TAF3)” showed a log2 fold change of 0.329.
For “DCAF4L2 (peptide sequence: TLYVPNR, peptide start residue: 119) (UniProt Q8NA75)”, the log2 fold change was -0.208.
“RBM15B (peptide sequence: YGIIEEVVIK, peptide start residue: 360) (UniProt Q8NDT2)” gave a log2 fold change of 0.633.
With “KLHL36 (peptide sequence: QVLENIHFPLIPK, peptide start residue: 230) (UniProt Q8N4N3)” the log2 fold change was -0.111.
“NAV1 (peptide sequence: SLTNLSFLTDSEKK, peptide start residue: 90) (UniProt Q8NEY1)” was tested, and the log2 fold change was 0.434.
In the case of “UniProt Q8N554 (peptide sequence: APGASMERPSAEER, peptide start residue: 98)”, the log2 fold change is reported as -0.557.
